These are yes or no findings as the source states them, for the method shown. Binding seen in cells or lysates may run through a third protein. Some binding calls cover weakened binding; strength is not graded here.

The target in the assay is T1, TmTrpB (wild-type β-subunit of tryptophan synthase from Thermotoga maritima) (Thermotoga maritima) (UniProt P50909).
T1 sequence: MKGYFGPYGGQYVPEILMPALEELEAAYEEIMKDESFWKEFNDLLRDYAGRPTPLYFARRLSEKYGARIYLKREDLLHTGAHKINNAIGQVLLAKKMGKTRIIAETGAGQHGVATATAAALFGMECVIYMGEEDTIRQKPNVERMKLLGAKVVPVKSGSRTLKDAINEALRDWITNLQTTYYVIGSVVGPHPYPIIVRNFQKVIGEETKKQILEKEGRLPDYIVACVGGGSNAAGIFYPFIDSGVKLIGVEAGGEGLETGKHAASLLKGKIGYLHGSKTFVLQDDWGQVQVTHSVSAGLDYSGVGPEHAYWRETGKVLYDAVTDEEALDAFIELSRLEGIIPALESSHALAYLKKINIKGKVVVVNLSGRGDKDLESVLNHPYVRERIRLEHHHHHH
The experiment in a line: co-purification of untagged TmTrpA with TmTrpB on Ni chromatography; analytical size exclusion. (In general: In gel filtration, larger molecules generally elute earlier.)

B1: TmTrpA (α-subunit of tryptophan synthase from Thermotoga maritima) (enzyme, UniProt P50908 1-239, looked up)
chain: MKGFIAYIPAGFPDLETTRKILIALNELGITGVEIGVPFSDPVADGPVIQLAHSVALRNGVTIKKILEMLSEISVDYDLYLMSYLNPIVNYPEGKEKLLDELKKLGVKGLIIPDLPLREVKNVDIAYPIVPFVAPNTKDEEIDLINSVQAPFVYYISRYGVTGEREDLPFADHIKRVKERIKLPLFVGFGISRHEQVKKVWEIADGVIVGSALVRIMEENPKDEIPRKVVEKVKELLGK
B1: the binding result is reported as “binds”.

(Values after patent US20160298152A1 (CALIFORNIA INSTITUTE OF TECHNOLOGY, published 2016).)
